According to patent US7101902B2, “2-guanidinylimidazolidinedione compounds and methods of making and using thereof” (The United States of America as represented by the …, priority 2003, dated 2006):
“Also recorded” adds a separate entry of the source. At least one compound was matched to its structure with a doubt left.

System: P. cynomolgi sporozoites
Assay: Causal prophylactic assay for intramuscular administration in Rhesus monkey
Type: in vivo, Plasmodium cynomolgi
Procedure: The causal prophylactic antimalarial activity of the two 2-guanidinylimidazolidinedione carbamates 3c and 4b were assessed against Plasmodium cynomolgi in Rhesus monkey. Two monkeys were used in each test group. The average control animal developed parasitemia is about 10 days after inoculation of about 1×10^6 P. cynomolgi sporozoites harvested from Anopheles dirus.
In order to study the causal prophylactic activity of the 2-guanidinylimidazolidinedione compounds of the present invention, the following assay was conducted. Twelve rhesus monkeys were issued. The monkeys were randomized to 2 control animals and 5 groups of 2 experimental animals each.
A donor monkey was inoculated intravenously with 1.3 ml, freshly-thawed frozen infected red blood cells (DA310). The experiments were conducted in US Army oversea laboratory, AFRIMS, Bankoku, Thailand. When the donor monkey developed gametocytemia, mosquito feedings were conducted on days 13 and 14 after inoculation. The donor monkey was treated with intramuscular chloroquine hydrochloride (CQ) 10 mg/kg, once a day after the second mosquito feeding and continued for 7 days.
On day 0 (beginning of assay), each of the 12 monkeys was inoculated intravenously with 1-ml inoculum of suspension containing about 1.0×10^6 P. cynomolgi sporozoites harvested from Anopheles dirus mosquitoes' salivary glands previously fed on the donor monkey. See Corcoran, K D, et al. (1993) Am. J. Trop. Med. Hyg. 49:473–477, and Shanks, G D, et al. (2001) Clinical Infectious Diseases 33:1968–1974, which are herein incorporated by reference.
All monkeys received treatment on days −1, 0 and 1. The control monkeys received dimethylsulfoxide (DMSO) and the experimental animals received testing compound intramusculary.

Question: Which “Day of Parasitemia” value (10 mg/kg IM on days -1, 0 and 1, per monkey, 10 mg/kg) does the source give for `CC(C)N1C(=O)C(=O)NC1=NC(=NC(=O)OC(C)(C)C)Nc1ccc(Cl)c(Cl)c1` [Compound 3c, N-(3,4-dichlorophenyl)-N′-(1-isopropyl-4,5-dioxoimidazolidin-2-ylidene)-N″-(tert-butoxycarbonyl)-guanidine] here?
Answer: Parasite free on day 100; also recorded: Remain parasite free

Question: And the “Result (causal prophylaxis = parasite free for 100 days after treatment)” value (10 mg/kg IM, 10 mg/kg)?
Answer: All four monkeys were protected; also recorded: Causal prophylaxis

Question: And the “Day of Parasitemia” value (30 mg/kg IM on days -1, 0 and 1, per monkey, 30 mg/kg)?
Answer: Parasite free on day 100; also recorded: Remain parasite free

Question: What about the “Result (causal prophylaxis = parasite free for 100 days after treatment)” value (30 mg/kg IM, 30 mg/kg) of the same compound?
Answer: All four monkeys were protected; also recorded: Causal prophylaxis

Question: And the “Protective / prophylactic activity (in words)” value (10 and 30 mg/kg, intramuscular)?
Answer: protective activity
